Data as given in PubChem BioAssay AID1259308 (NCATS, 2017)
Here is an unselected part of about 59,000 reagents. About 1,510 of them (2.6%) count as active. 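Calls use total luciferase alone and ignore viability, so some active siRNAs may act by altering cell number.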

Screen: 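Knock-downs that increase output of a recombinant reporter protein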 (primary screen)
Cell system: human HEK293 embryonic kidney cells stably expressing firefly luciferase (HEK-CMV-Luc2-Hygro)
Knock-down reagent: single siRNA against human genes, 0.8 pmol siRNA per well
Duration: 72 h
Read-out: 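Reporter luminescence and viable-cell signal on separate replicate plates, given as percent of non-targeting control and median/MAD z-scores, plus per-cell luciferase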
Direction: total luciferase, z-score and total luciferase, % of control: higher = more reporter protein produced; luciferase per cell, z-score: higher = more reporter output per viable cell; viable cells, % of control: higher = more viable cells
Hit rule: 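An siRNA counts as active if its total luciferase robust z-score exceeds 3; genes with two or more such siRNAs out of three were retested with fresh siRNAs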
Meaning of the calls: active = raised luciferase; inactive = no rise

target gene	PubChem SID	total luciferase, z-score	total luciferase, % of control	luciferase per cell, z-score	viable cells, % of control	call
TRIM72 (GeneID 493829)	SID160725487	-0.145	79	-0.446	99.3	inactive
TRIM72 (GeneID 493829)	SID160768243	6.97	221	4.5	75.3	active
TRIM72 (GeneID 493829)	SID160768244	-1.14	59.3	-1.11	88.8	inactive
MTMR9 (GeneID 66036)	SID160748411	-0.654	68.9	-0.384	85.1	inactive
MTMR9 (GeneID 66036)	SID160748412	-0.916	63.7	-1.03	93.2	inactive
MTMR9 (GeneID 66036)	SID160748413	-0.266	76.6	-0.283	92.2	inactive
CLEC10A (GeneID 10462)	SID160728480	-1.7	48.1	-1.29	75.5	inactive
CLEC10A (GeneID 10462)	SID160728481	-0.965	62.7	-0.938	89.7	inactive
CLEC10A (GeneID 10462)	SID160728482	0.235	86.6	-0.301	105	inactive
TAF11 (GeneID 6882)	SID160717674	0.534	92.5	0.283	96	inactive
TAF11 (GeneID 6882)	SID160717675	1.46	111	0.926	97.1	inactive
TAF11 (GeneID 6882)	SID160717676	1.72	116	1.94	77.9	inactive
BNIPL (GeneID 149428)	SID160758814	0.58	93.4	0.305	96.3	inactive
BNIPL (GeneID 149428)	SID160758816	1.61	114	1.61	83.4	inactive
BNIPL (GeneID 149428)	SID160758817	0.461	91	0.0892	99.4	inactive
NARS2 (GeneID 79731)	SID160749307	1.41	110	1.28	87.6	inactive
NARS2 (GeneID 79731)	SID160749308	-1.13	59.4	-0.677	79.3	inactive
NARS2 (GeneID 79731)	SID160749309	3.28	147	2.15	93.2	active
PTCH1 (GeneID 5727)	SID160715287	-1.01	61.7	-0.626	81.3	inactive
PTCH1 (GeneID 5727)	SID160715288	0.522	92.3	0.964	80	inactive
PTCH1 (GeneID 5727)	SID160715289	-3	22.2	-4.08	72.6	inactive
YWHAEP7 (GeneID 284100)	SID160763167	-0.148	78.9	0.0981	86	inactive
YWHAEP7 (GeneID 284100)	SID160763168	2.42	130	1.74	91.8	inactive
YWHAEP7 (GeneID 284100)	SID160763169	-0.123	79.4	-0.542	102	inactive

2 neighbouring reagents from above, quoted:
target gene	PubChem SID	total luciferase, z-score	total luciferase, % of control	luciferase per cell, z-score	viable cells, % of control	call
MTMR9 (GeneID 66036)	SID160748411	-0.654	68.9	-0.384	85.1	inactive
MTMR9 (GeneID 66036)	SID160748412	-0.916	63.7	-1.03	93.2	inactive
